In the assay the target is recombinant His6-Atp3 (S. cerevisiae). In words: pull-down; Talon-bead-bound His-tagged proteins incubated with 5 ug GST proteins; 20 mM Tris-HCl pH 7.4, 100 mM NaCl, 0.1% NP-40, 4 °C, 1 h; washed with 50 mM imidazole; immunoblot; both purified. A general note: In western blotting, separated proteins are transferred to a membrane and probed.

These are yes or no findings as the source states them, for the method shown. Binding calls can cover weak binding; strength is not graded here. Where a sequence is shown, tags or fusion partners need not be part of it.

B1: recombinant GST-tagged Ids2 (protein, UniProt P46958 1-469)
chain: MDNQQESISEDITGDLAAAVRKSWSESQDNPLLLNFNNSPIGTPTDRYSPEPATMMEGNAMNLSSLARGSTQQQQRLYGSSQTREKSDQQQQDYQLFKHHYSLGQETRESVSDILNDLTLGSPEPSERASPIRQPSVDVPPLTTRRSSIQDVQWIRHLLNPRSSFSGASSNEPTNSPGDFLNQSRAWITILHDSSAESLQAVIVLAESLKNVNSQYNLWVLHSSEVNAFQLAQVGIKTLIIDEYINLFMNFGTGSGFSASSQSTETKGELNFKWCKLFLFFSLIDRFELICYLSPTCLVLQNIDELLESTEVSDEIDNETCVLLSNKVNYINEDLVSVNQDQSSAENYDDDPQIIILKPNRAVAMCIKEYFTIYGNDFEGESKRSMFHQMNDLQIMKALFGDKWSYIDSVGYCAVPIASVPANRLNYKIIEFKILKPWERQNYIAAGQHRESIMNKWLDLWRDFLNQAN
Regarding B1, the binding entry is listed as “binds”.

B2: Ids2 middle region (aa 92-256) (domain or fragment, UniProt P46958 92-256)
chain: QDYQLFKHHYSLGQETRESVSDILNDLTLGSPEPSERASPIRQPSVDVPPLTTRRSSIQDVQWIRHLLNPRSSFSGASSNEPTNSPGDFLNQSRAWITILHDSSAESLQAVIVLAESLKNVNSQYNLWVLHSSEVNAFQLAQVGIKTLIIDEYINLFMNFGTGSG
Consider B2, for which the binding result was “binds”.

The record behind these values is article PMC8582188.
